The record followed here is PMC5740495.

The chains behind the UniProt entries cited, without tags or fusion partners.
UniProt O15371: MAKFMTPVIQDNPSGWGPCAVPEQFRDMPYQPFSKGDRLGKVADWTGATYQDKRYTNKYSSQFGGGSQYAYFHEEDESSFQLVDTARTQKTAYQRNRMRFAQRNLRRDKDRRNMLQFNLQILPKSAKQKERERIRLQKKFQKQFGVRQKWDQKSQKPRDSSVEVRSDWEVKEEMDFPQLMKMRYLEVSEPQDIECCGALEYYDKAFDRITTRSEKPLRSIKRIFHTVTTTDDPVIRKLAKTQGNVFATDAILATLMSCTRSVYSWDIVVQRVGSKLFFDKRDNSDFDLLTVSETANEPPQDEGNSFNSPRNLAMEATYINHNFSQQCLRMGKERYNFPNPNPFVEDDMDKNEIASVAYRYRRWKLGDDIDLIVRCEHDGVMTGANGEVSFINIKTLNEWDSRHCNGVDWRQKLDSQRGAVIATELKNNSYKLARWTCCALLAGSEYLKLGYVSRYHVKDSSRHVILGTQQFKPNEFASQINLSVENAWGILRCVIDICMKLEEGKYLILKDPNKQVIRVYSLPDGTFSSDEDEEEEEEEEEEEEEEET
UniProt P55060: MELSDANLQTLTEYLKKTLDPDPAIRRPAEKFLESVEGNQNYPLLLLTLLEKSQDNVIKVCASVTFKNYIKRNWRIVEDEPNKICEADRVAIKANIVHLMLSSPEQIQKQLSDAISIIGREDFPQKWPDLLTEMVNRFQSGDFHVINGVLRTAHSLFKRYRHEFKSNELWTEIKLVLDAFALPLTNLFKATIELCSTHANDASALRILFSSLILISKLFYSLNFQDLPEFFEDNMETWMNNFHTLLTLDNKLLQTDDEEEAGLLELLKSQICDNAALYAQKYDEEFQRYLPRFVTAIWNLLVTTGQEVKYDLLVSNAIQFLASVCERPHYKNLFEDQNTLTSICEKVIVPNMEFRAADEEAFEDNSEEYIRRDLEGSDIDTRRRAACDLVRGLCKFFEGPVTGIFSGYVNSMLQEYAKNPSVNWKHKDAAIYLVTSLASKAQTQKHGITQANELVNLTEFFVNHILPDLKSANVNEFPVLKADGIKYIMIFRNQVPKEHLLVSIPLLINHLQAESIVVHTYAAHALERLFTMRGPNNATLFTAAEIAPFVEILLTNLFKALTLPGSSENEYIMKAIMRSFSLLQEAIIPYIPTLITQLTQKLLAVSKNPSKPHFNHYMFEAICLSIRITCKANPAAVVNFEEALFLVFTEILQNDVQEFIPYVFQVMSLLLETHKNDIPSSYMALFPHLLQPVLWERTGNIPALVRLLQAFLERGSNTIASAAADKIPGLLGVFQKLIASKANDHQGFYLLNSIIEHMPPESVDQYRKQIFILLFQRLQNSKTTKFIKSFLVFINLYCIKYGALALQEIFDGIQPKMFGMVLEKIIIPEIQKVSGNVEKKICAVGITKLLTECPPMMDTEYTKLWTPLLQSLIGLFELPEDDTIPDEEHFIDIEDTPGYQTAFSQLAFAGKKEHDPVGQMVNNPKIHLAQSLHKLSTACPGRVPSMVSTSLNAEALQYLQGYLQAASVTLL
UniProt P52294: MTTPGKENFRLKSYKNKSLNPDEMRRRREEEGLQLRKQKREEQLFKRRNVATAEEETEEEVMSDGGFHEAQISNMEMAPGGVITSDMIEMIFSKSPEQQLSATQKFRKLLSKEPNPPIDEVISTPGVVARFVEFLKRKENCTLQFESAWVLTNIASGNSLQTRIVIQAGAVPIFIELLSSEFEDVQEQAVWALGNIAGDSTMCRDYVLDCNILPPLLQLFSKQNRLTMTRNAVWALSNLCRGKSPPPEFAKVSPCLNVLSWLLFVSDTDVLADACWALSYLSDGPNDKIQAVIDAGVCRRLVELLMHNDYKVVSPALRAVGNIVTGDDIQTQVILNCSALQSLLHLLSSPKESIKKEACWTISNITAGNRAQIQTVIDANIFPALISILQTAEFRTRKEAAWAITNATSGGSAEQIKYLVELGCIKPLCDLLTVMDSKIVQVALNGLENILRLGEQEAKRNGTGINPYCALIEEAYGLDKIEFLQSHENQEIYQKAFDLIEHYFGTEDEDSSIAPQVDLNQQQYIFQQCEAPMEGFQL
UniProt O15131: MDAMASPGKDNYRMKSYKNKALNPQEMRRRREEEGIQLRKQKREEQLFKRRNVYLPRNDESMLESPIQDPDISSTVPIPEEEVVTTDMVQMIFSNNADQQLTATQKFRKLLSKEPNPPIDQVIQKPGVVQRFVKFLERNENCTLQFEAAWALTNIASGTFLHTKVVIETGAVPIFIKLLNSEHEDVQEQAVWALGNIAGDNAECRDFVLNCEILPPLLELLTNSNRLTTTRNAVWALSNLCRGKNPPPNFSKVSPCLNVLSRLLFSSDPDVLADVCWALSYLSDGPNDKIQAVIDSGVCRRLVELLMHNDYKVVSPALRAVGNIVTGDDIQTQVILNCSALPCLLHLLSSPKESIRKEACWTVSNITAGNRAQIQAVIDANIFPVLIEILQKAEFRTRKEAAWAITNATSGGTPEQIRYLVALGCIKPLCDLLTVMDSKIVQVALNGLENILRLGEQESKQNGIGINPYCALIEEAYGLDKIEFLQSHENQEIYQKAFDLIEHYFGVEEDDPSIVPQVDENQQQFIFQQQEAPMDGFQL
UniProt Q92973: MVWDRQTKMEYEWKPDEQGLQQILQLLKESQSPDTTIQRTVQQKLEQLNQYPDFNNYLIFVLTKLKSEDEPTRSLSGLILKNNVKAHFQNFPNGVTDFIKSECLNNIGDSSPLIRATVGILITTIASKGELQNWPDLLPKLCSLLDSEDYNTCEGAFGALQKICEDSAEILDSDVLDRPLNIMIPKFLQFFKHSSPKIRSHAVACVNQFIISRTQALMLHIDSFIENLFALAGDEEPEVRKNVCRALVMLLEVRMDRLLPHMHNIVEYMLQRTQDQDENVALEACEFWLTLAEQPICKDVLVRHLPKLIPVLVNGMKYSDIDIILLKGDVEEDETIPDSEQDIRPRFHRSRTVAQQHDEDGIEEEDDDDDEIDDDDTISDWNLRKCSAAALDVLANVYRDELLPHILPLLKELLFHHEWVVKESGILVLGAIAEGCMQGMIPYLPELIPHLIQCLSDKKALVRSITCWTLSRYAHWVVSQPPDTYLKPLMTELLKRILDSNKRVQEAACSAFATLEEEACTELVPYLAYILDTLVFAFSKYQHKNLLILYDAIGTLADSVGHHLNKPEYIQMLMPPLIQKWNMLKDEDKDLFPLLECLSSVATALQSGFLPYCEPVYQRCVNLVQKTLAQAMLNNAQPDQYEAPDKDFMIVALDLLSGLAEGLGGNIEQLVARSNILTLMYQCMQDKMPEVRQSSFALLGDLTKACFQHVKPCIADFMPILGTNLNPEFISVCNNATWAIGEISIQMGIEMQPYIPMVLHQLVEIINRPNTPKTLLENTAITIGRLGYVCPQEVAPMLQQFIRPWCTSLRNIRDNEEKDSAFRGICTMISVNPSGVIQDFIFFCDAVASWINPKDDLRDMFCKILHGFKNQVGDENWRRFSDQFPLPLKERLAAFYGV
UniProt O14980: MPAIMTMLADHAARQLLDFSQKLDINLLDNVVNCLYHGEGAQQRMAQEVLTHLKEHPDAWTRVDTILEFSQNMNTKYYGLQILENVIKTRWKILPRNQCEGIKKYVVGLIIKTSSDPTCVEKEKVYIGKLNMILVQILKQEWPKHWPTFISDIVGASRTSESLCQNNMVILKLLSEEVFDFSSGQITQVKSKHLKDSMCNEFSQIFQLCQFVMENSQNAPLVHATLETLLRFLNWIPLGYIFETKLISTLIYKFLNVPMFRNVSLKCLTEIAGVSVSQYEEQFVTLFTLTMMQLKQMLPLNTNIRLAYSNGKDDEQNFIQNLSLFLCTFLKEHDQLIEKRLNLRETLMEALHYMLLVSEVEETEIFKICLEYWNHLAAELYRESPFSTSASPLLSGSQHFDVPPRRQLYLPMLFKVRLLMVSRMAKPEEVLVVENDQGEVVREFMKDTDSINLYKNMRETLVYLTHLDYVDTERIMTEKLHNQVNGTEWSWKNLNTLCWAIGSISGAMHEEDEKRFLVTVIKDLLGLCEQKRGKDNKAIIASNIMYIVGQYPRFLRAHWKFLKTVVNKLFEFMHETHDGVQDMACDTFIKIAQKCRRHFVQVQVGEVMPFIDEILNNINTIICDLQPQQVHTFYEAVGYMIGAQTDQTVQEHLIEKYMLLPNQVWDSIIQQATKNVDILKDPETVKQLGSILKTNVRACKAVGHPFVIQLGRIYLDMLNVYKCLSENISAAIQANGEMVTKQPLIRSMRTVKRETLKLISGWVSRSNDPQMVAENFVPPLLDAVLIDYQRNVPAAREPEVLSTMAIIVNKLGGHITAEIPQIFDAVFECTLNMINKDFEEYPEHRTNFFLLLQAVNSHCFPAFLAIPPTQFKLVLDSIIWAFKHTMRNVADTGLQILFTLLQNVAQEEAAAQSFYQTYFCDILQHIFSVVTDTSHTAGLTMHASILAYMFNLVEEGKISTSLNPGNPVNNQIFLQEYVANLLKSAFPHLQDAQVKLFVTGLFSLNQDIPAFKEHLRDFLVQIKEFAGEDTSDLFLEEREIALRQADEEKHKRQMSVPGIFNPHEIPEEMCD
UniProt O15397: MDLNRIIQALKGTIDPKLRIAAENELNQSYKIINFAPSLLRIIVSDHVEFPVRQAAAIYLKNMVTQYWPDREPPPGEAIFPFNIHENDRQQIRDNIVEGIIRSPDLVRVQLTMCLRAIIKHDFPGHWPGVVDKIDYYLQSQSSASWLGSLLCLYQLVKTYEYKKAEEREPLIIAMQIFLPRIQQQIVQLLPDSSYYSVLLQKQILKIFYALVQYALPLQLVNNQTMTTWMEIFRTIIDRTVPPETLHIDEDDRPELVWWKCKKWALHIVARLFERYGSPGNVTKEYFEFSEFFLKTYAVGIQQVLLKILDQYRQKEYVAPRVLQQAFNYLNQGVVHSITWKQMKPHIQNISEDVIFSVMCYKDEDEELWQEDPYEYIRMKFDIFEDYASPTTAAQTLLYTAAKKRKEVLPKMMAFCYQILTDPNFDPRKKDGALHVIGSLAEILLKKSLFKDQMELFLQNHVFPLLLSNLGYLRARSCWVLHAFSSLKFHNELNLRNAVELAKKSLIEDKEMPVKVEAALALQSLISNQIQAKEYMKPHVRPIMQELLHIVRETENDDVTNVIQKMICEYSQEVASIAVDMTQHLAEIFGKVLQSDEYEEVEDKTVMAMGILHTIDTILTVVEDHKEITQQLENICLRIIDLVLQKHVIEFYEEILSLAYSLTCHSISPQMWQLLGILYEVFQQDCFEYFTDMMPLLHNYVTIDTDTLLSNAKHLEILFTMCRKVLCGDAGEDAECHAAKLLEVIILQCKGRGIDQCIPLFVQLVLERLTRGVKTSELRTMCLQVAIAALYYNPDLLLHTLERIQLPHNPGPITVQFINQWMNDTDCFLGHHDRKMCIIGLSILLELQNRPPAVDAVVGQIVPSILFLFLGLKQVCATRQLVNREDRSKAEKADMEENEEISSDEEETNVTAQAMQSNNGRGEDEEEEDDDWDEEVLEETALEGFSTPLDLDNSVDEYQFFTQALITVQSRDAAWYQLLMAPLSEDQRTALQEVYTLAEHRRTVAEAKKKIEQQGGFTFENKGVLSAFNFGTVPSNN

No constants are given. Whether binding was seen depends on the method and setting. Binding seen in cells or lysates may run through a third protein. Here binding means that the protein was enriched with, or labelled near, the bait; the list need not be complete.

One assay concerns the target T1, XPO7 (human) (UniProt Q9UIA9).
T1 sequence: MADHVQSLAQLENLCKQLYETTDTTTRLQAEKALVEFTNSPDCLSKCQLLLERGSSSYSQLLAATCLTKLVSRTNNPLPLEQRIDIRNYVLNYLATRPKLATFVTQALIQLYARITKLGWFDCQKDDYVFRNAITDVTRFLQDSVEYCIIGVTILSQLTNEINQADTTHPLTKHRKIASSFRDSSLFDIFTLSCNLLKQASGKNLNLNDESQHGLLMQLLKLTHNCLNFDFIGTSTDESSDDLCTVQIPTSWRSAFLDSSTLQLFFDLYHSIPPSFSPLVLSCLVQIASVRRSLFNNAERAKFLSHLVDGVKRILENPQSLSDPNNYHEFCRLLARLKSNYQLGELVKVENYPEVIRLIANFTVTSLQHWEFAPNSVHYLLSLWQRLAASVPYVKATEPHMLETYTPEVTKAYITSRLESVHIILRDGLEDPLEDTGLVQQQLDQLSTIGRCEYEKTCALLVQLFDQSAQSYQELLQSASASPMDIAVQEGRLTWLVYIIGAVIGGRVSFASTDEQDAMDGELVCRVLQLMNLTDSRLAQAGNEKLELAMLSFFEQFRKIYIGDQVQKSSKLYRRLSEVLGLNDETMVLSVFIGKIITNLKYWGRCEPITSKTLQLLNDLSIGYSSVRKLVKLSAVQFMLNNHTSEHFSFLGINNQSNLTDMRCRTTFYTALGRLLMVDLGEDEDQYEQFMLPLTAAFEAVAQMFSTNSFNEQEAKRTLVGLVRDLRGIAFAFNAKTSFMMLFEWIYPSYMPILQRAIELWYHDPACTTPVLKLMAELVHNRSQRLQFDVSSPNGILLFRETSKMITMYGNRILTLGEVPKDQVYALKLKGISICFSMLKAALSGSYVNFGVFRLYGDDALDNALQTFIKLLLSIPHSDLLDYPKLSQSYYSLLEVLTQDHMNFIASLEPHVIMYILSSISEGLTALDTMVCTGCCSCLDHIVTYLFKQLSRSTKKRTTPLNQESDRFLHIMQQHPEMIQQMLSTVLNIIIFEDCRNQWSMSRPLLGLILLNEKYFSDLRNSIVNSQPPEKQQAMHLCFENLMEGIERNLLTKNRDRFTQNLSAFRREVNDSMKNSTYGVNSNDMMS
The assay can be described thus: proximity labelling; BioID, large-scale, direct identification of biotinylated peptides: same NTR-BirA* lines; biotinylated peptides eluted from streptavidin beads with 80% ACN, 20% TFA after the on-bead digest, MS.

Assay [1] addresses eukaryotic translation initiation factor 3 (subunit D, EIF3D) (human) (UniProt O15371). The assay can be described thus: proximity labelling; BioID, reciprocal: cargo fused to BirA*-FLAG (N- or C-terminal) in stable Flp-In T-REx 293 lines, four biological replicates; cargo interactomes compared pairwise, with BirA* alone and non-engineered cells.
The target of another assay is XPO2 (human) (UniProt P55060). The assay can be described thus: proximity labelling; BioID, large-scale, direct identification of biotinylated peptides: same NTR-BirA* lines; biotinylated peptides eluted from streptavidin beads with 80% ACN, 20% TFA after the on-bead digest, MS.
For a further assay, the target named is IMA5 (human) (UniProt P52294). The description is as above.
In another assay the target is IMA6 (human) (UniProt O15131). Described as above.
The next assay deals with TNPO1 (human) (UniProt Q92973). Described as above.
A further assay concerns the target T2, TNPO2 (human) (UniProt O14787).
T2 sequence: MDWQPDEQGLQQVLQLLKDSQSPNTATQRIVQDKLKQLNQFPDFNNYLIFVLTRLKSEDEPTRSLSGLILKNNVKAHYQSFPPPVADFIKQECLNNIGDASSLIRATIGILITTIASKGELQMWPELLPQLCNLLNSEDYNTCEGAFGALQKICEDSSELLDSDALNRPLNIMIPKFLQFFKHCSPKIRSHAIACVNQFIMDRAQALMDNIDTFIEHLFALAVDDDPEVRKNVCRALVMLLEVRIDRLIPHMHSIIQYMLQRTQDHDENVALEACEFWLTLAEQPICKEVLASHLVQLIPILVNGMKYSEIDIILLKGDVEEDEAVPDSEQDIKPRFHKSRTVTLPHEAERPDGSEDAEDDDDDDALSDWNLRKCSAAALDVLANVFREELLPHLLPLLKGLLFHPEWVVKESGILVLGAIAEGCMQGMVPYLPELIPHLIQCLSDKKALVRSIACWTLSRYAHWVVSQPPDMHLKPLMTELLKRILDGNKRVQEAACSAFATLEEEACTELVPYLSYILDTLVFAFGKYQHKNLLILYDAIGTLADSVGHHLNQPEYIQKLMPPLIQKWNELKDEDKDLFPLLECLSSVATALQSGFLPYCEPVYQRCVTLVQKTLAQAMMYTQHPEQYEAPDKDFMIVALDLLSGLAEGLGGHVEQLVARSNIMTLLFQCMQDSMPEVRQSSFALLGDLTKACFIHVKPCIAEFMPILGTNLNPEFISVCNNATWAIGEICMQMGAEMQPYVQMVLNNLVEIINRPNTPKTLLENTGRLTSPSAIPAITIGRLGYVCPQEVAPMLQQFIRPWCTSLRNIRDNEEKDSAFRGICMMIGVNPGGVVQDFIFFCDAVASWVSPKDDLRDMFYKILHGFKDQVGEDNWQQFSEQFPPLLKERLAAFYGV
The description is as above.

Another assay addresses XPO1 (human) (UniProt O14980). Described as above.

CSN4 (from UniProt Q9BT78 1-406): in the assay with XPO7 (human), the binding entry is “binds”.

In the case of IPO8 (from UniProt O15397 1-1037), the binding result in assay [1] is reported as “binds”.

B1: Heterogeneous nuclear ribonucleoprotein M (protein, UniProt P52272 1-730)
chain: MAAGVEAAAEVAATEIKMEEESGAPGVPSGNGAPGPKGEGERPAQNEKRKEKNIKRGGNRFEPYANPTKRYRAFITNIPFDVKWQSLKDLVKEKVGEVTYVELLMDAEGKSRGCAVVEFKMEESMKKAAEVLNKHSLSGRPLKVKEDPDGEHARRAMQKVMATTGGMGMGPGGPGMITIPPSILNNPNIPNEIIHALQAGRLGSTVFVANLDYKVGWKKLKEVFSMAGVVVRADILEDKDGKSRGIGTVTFEQSIEAVQAISMFNGQLLFDRPMHVKMDERALPKGDFFPPERPQQLPHGLGGIGMGLGPGGQPIDANHLNKGIGMGNIGPAGMGMEGIGFGINKMGGMEGPFGGGMENMGRFGSGMNMGRINEILSNALKRGEIIAKQGGGGGGGSVPGIERMGPGIDRLGGAGMERMGAGLGHGMDRVGSEIERMGLVMDRMGSVERMGSGIERMGPLGLDHMASSIERMGQTMERIGSGVERMGAGMGFGLERMAAPIDRVGQTIERMGSGVERMGPAIERMGLSMERMVPAGMGAGLERMGPVMDRMATGLERMGANNLERMGLERMGANSLERMGLERMGANSLERMGPAMGPALGAGIERMGLAMGGGGGASFDRAIEMERGNFGGSFAGSFGGAGGHAPGVARKACQIFVRNLPFDFTWKMLKDKFNECGHVLYADIKMENGKSKGCGVVKFESPEVAERACRMMNGMKLSGREIDVRIDRNA
Regarding B1, the binding entry with XPO2 (human) is recorded as “binds”.

B2: NUP50 (protein, UniProt Q9UKX7 1-468)
chain: MAKRNAEKELTDRNWDQEDEAEEVGTFSMASEEVLKNRAIKKAKRRNVGFESDTGGAFKGFKGLVVPSGGGRFSGFGSGAGGKPLEGLSNGNNITSAPPFASAKAAADPKVAFGSLAANGPTTLVDKVSNPKTNGDSQQPSSSGLASSKACVGNAYHKQLAALNCSVRDWIVKHVNTNPLCDLTPIFKDYEKYLANIEQQHGNSGRNSESESNKVAAETQSPSLFGSTKLQQESTFLFHGNKTEDTPDKKMEVASEKKTDPSSLGATSASFNFGKKVDSSVLGSLSSVPLTGFSFSPGNSSLFGKDTTQSKPVSSPFPTKPLEGQAEGDSGECKGGDEEENDEPPKVVVTEVKEEDAFYSKKCKLFYKKDNEFKEKGIGTLHLKPTANQKTQLLVRADTNLGNILLNVLIPPNMPCTRTGKNNVLIVCVPNPPIDEKNATMPVTMLIRVKTSEDADELHKILLEKKDA
B2: the binding entry in the assay with IMA5 (human), in the assay with IMA6 (human), with TNPO1 (human), with TNPO2 (human) and with XPO2 (human) was “binds” in each case.

B3: EXOSC10 (protein, UniProt Q01780 1-885)
chain: MAPPSTREPRVLSATSATKSDGEMVLPGFPDADSFVKFALGSVVAVTKASGGLPQFGDEYDFYRSFPGFQAFCETQGDRLLQCMSRVMQYHGCRSNIKDRSKVTELEDKFDLLVDANDVILERVGILLDEASGVNKNQQPVLPAGLQVPKTVVSSWNRKAAEYGKKAKSETFRLLHAKNIIRPQLKFREKIDNSNTPFLPKIFIKPNAQKPLPQALSKERRERPQDRPEDLDVPPALADFIHQQRTQQVEQDMFAHPYQYELNHFTPADAVLQKPQPQLYRPIEETPCHFISSLDELVELNEKLLNCQEFAVDLEHHSYRSFLGLTCLMQISTRTEDFIIDTLELRSDMYILNESLTDPAIVKVFHGADSDIEWLQKDFGLYVVNMFDTHQAARLLNLGRHSLDHLLKLYCNVDSNKQYQLADWRIRPLPEEMLSYARDDTHYLLYIYDKMRLEMWERGNGQPVQLQVVWQRSRDICLKKFIKPIFTDESYLELYRKQKKHLNTQQLTAFQLLFAWRDKTARREDESYGYVLPNHMMLKIAEELPKEPQGIIACCNPVPPLVRQQINEMHLLIQQAREMPLLKSEVAAGVKKSGPLPSAERLENVLFGPHDCSHAPPDGYPIIPTSGSVPVQKQASLFPDEKEDNLLGTTCLIATAVITLFNEPSAEDSKKGPLTVAQKKAQNIMESFENPFRMFLPSLGHRAPVSQAAKFDPSTKIYEISNRWKLAQVQVQKDSKEAVKKKAAEQTAAREQAKEACKAAAEQAISVRQQVVLENAAKKRERATSDPRTTEQKQEKKRLKISKKPKDPEPPEKEFTPYDYSQSDFKAFAGNSKSKVSSQFDPNKQTPSGKKCIAAKKIKQSVGNKSMSFPTGKSDRGFRYNWPQR
Take B3: the binding entry with IMA5 (human) and in the assay with XPO1 (human) was “binds” in each case.
